Assay results reported in paper doi:10.1101/2019.12.15.876821.
No constants are given. Whether binding was seen depends on the method and setting. Binding seen in cells or lysates may run through a third protein. Some results given as binding are weak or reduced against the parent protein; the word gives no strength.

Amino acid sequences for entries named in this document (tags omitted).
UniProt P49327: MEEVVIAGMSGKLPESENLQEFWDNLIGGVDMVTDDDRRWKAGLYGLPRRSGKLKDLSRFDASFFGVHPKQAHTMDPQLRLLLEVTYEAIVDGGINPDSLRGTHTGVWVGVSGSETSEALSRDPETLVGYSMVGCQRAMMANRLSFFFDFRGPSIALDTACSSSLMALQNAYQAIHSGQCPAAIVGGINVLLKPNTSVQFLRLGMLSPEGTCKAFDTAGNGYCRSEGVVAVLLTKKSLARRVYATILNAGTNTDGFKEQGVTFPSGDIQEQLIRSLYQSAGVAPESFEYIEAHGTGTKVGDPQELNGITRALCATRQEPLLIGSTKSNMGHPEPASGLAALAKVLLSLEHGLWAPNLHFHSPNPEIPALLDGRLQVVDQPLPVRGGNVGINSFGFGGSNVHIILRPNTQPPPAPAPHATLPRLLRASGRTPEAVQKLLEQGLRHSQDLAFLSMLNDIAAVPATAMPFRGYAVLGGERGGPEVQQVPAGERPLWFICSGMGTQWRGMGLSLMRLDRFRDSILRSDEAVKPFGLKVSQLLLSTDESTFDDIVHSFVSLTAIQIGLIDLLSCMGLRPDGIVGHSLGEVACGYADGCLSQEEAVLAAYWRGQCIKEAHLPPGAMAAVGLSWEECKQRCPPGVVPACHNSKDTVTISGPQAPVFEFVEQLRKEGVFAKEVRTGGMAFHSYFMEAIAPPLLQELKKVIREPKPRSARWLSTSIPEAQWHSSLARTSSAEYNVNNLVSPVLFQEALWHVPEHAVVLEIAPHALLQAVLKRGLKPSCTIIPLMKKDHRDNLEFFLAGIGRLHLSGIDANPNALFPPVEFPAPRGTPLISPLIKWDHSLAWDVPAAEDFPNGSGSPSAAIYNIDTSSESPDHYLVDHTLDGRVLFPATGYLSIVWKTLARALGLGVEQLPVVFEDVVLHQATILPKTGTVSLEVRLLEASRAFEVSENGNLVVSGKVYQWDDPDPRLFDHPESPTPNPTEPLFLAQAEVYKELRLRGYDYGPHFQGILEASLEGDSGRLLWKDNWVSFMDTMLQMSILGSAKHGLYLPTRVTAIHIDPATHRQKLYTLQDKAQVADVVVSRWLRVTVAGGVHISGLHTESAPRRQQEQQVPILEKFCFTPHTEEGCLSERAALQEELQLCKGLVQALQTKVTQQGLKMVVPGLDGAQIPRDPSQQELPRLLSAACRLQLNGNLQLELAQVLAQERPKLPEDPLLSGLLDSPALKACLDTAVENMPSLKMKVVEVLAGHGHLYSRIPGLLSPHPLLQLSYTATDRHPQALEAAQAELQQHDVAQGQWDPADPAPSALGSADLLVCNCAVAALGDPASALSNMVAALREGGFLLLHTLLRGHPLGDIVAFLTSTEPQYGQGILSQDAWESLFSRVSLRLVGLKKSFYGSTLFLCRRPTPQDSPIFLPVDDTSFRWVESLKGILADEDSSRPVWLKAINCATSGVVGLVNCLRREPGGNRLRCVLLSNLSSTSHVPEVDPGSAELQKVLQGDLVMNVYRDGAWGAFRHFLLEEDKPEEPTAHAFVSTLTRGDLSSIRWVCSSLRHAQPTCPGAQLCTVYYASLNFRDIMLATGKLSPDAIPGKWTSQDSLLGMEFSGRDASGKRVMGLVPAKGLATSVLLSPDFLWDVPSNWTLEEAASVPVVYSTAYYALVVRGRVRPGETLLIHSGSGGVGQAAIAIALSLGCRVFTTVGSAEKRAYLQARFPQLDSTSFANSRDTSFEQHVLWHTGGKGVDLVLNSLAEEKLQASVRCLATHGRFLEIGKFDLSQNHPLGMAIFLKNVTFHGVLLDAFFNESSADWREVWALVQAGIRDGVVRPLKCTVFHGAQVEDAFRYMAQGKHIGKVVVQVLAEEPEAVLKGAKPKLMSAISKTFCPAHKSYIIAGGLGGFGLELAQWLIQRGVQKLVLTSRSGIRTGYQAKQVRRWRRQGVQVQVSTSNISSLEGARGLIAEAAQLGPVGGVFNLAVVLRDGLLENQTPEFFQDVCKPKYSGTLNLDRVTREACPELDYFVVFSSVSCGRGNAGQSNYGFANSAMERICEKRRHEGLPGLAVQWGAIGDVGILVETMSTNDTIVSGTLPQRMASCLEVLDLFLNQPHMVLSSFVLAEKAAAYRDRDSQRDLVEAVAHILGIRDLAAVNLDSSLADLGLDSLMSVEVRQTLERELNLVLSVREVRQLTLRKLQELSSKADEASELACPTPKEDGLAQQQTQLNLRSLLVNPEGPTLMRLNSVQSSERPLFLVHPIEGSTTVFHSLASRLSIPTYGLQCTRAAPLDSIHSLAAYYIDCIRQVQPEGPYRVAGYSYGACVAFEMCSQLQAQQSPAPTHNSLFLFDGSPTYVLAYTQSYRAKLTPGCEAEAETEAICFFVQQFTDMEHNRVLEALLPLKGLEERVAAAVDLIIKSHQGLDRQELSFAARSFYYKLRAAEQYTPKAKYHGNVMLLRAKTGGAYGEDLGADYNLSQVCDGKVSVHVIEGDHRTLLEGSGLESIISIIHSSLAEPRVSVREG

Molecular target: fatty acid synthase (FASN) (human (endogenous in DG75)) (UniProt P49327)
Assay: co-IP

binding: binds
B1: ubiquitin-specific peptidase 2a (USP2a) (enzyme, UniProt O75604-1 1-605)
chain: MSQLSSTLKRYTESARYTDAHYAKSGYGAYTPSSYGANLAASLLEKEKLGFKPVPTSSFLTRPRTYGPSSLLDYDRGRPLLRPDITGGGKRAESQTRGTERPLGSGLSGGSGFPYGVTNNCLSYLPINAYDQGVTLTQKLDSQSDLARDFSSLRTSDSYRIDPRNLGRSPMLARTRKELCTLQGLYQTASCPEYLVDYLENYGRKGSASQVPSQAPPSRVPEIISPTYRPIGRYTLWETGKGQAPGPSRSSSPGRDGMNSKSAQGLAGLRNLGNTCFMNSILQCLSNTRELRDYCLQRLYMRDLHHGSNAHTALVEEFAKLIQTIWTSSPNDVVSPSEFKTQIQRYAPRFVGYNQQDAQEFLRFLLDGLHNEVNRVTLRPKSNPENLDHLPDDEKGRQMWRKYLEREDSRIGDLFVGQLKSSLTCTDCGYCSTVFDPFWDLSLPIAKRGYPEVTLMDCMRLFTKEDVLDGDEKPTCCRCRGRKRCIKKFSIQRFPKILVLHLKRFSESRIRTSKLTTFVNFPLRDLDLREFASENTNHAVYNLYAVSNHSGTTMGGHYTAYCRSPGTGEWHTFNDSSVTPMSSSQVRTSDAYLLFYELASPPSRM
